The results in this text go back to patent US20040170990A1, “Intracellular nucleic acid inhibitors of small guanine nucleotide exchange factors” (published 2004).

For some assays here: A negative result means that nothing was seen under these conditions. Protein sequences can lack the tags named with them. For some assays here: The exact form of at least one protein or probe is not confirmed.

Data set [1] concerns the target T1, cytohesin-1 Sec7 domain, biotinylated (UniProt Q15438).
T1 sequence (looked up, limits assumed): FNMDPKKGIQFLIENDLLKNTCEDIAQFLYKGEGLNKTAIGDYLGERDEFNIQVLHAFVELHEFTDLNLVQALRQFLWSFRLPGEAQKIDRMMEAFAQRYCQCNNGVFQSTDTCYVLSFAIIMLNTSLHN
Kind of data set: SELEX. The conditions noted are these: 5 mM MgCl2, 22 C, purified recombinant protein, protein details: Sulfo-NHS-LC-biotin, on streptavidin Dynabeads.

Data set [2] has as its target T2, cytohesin-1 (full-length) (UniProt Q15438).
T2 sequence (looked up): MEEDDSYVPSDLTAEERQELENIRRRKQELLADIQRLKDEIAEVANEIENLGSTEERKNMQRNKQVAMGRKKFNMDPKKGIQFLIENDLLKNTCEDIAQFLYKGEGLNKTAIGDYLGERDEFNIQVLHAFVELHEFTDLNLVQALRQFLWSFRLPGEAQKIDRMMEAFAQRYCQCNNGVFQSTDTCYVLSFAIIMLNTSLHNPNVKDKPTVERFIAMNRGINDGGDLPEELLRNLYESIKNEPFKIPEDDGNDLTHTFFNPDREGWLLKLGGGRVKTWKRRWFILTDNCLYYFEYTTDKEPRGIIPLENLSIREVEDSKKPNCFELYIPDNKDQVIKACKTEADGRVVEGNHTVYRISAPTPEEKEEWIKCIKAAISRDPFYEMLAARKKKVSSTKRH
Kind of data set: inhibition of the protein. The settings on record: inhibits GDP/GTP exchange on ARF-1 at 3.2 µM, concentration-dependent; 50 mM HEPES pH 7.4, 1 mM MgCl2, 37 C; purified recombinant protein; protein details: 6xHis (cytohesin-1-His6), E. coli, Ni-NTA; label: 5'-32P (filter binding).

The target of data set [3] is T3, Gea2 Sec7 domain (Gea2-Sec7, G2-Sec7) (UniProt P39993).
T3 sequence (looked up, limits assumed): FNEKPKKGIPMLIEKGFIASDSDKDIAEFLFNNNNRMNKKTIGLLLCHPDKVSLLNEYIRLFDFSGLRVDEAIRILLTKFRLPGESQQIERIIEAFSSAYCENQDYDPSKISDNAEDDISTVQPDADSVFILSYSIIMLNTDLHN
Kind of data set: inhibition of the protein. The conditions noted are these: exchange activity not influenced at 3.2 µM; purified recombinant protein; protein details: 6xHis, provided by Cathy Jackson; label: 5'-32P (filter binding).

Data set [4] addresses T4, cytohesin-2 (ARNO) Sec7 domain (C2-Sec7) (UniProt Q99418).
T4 sequence (looked up, limits assumed): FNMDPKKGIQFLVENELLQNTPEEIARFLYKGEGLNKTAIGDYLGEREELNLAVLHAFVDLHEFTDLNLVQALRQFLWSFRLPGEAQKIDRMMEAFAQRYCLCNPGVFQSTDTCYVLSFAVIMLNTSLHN
Nature of the data set: inhibition of the protein. The settings on record: inhibits GDP/GTP exchange on ARF-1 at 3.2 µM; purified recombinant protein; label: 5'-32P (filter binding).

Data set [5] has as its target T5, cytohesin-1 Sec7 domain (C1-Sec7) (UniProt Q15438).
T5 sequence (looked up, limits assumed): T1 sequence (looked up, limits assumed)
Kind of data set: inhibition of the protein. The settings on record: inhibits GDP/GTP exchange on ARF-1 at 3.2 µM; purified recombinant protein; protein details: 6xHis, E. coli; label: 5'-32P (filter binding).

For data set [6], the target named is T2, cytohesin-1 (full-length). Nature of the data set: SELEX. The settings on record: clone from round 13; purified recombinant protein; protein details: 6xHis (cytohesin-1-His6), E. coli, Ni-NTA.

Regarding “GGGAUAGGAUCCACAUCUACGUAUUAAUACAGUAUAACCGGCAUGCCGCAUCGACUUCACUGCAGACUUGACGAAGCUU [NC1F-C10]”, the selection result in data set [1] is “selected”.
For the sequence “GGGAUAGGAUCCACAUCUACGUAUUAGCGCUGAUACAUCGACCUCGCCUAACAAGGUUCACUGCAGACUUGACGAAGCUU [NC1F-C7]”, the selection result in data set [1] is “selected”.
Still for that read-out and setting: with “GGGAUAGGAUCCACAUCUACGUAUUAAUACACGAUUCCAGGCCGGGAAACGAGGACUUCACUGCAGACUUGACGAAGCUU [NC1F-C15]” the entry was “selected”.
For “GGGAGAGACAAGCUUGGGUCUAUUAUGCCUUUAGCUAGCGCAUUCUGUGGGGUGGGUGGAAGAAGAGAAAGAGAAGUUAAUUAAGGAUCCUCAG [M69]”, the “functional effect of the aptamer” value was “active” in data set [2], “not active” in data set [3], “active” in data set [4] and “active” in data set [5].
With “GGGAUAGGAUCCACAUCUACGUAUUAAUACCAUAACACCGCCGGCCUGUGUACGCGUUCACUGCAGACUUGACGAAGCUU [NC1F-C19]”, in data set [1], the selection result is listed as “selected”.
On the same count and under the same terms, with “GGGAUAGGAUCCACAUCUACGUAUUAACCCCCCACUCGACAACCCAACGCCCGCUAUUCACUGCAGACUUGACGAAGCUU [NC1F-C12]” the entry was “selected”.
In the case of “GGGAGAGACAAGCUUGGGUCUGCCCGCUUAGAAAUCCCAAAGUGCGGGAACGGUUGCGAAGAAGAGAAAGAGAAGUUAAUUAAGGAUCCUCAG [M21]”, the selection result in data set [6] was “selected”.
For the sequence “GGGAUAGGAUCCACAUCUACGUAUUACCACCAGGGAUAAGGUCGAACCCUGUCGUCUUCACUGCAGACUUGACGAAGCUU”, the selection result in data set [1] (12 identical clones, 20 mM Tris pH 7.5, 100 mM NaCl) is “selected”.
For “GGGAGAGACAAGCUUGGGUCGAUGUUGGCAGGCUGUCGUCACUGGUGGGUCUAAUUCCCGAGAAGAGAAAGAGAAGUUAAUUAAGGAUCCUCAG [M15]”, the selection result in data set [6] is listed as “selected”.
For “GGGAUAGGAUCCACAUCUACGUAUUACCGACCGGCCAUAUUACGCGUAAUCUACCUUCACUGCAGACUUGACGAAGCUU [NC1F-C3]”, the selection result in data set [1] is listed as “selected”.
Same read-out and setting: for “GGGAUAGGAUCCACAUCUACGUAUUAGGCCGGCAAUGCGUAAACAGGGCCCAGAAGUUCACUGCAGACUUGACGAAGCUU [NC1F-C8]” the value was “selected”; for “GGGAUAGGAUCCACAUCUACGUAUUAAUACACCAGCGCGCCGAGACUAACUCCGACUUCACUGCAGACUUGACGAAGCUU [NC1F-C2]”, “selected”.
On the same count and under the same terms, with “GGGAUAGGAUCCACAUCUACGUAUUAAUGCAUGCCUACGACGCCCGCCGGUCACGUUCACUGCAGACUUGACGAAGCUU [NC1F-C13]” the entry was “selected”.
Take “GGGAGAGACAAGCUUGGGUCUGCUCUCCAUGGGUGCUCUUGAAAGGGGAAGGGAUGUGGAGAAGAGAAAGAGAAGUUAAUUAAGGAUCCUCAG [M11]”: the selection result in data set [6] is “selected”.
Still for that read-out and setting: with “GGGAGAGACAAGCUUGGGUCUGGUUUGAACGGGGGCGCAUCAGCCAUGCUAUAAACUCCAAGAAGAGAAAGAGAAGUUAAUUAAGGAUCCUCAG [M72]” the entry was “selected”.
As to “GGGAUAGGAUCCACAUCUACGUAUUACGGGCCCACGCGCGACCGACCUCCUAACCAUUCACUGCAGACUUGACGAAGCUU [NC1F-C1]”, the selection result in data set [1] is listed as “selected”.
For “GGGAGAGACAAGCUUGGGUCGGGAAGGGUGGAAGUGCUGCUUGGUGCUCUGUCCUUUUUUAAGAAGAGAAAGAGAAGUUAAUUAAGGAUCCUCAG [M26]”, in data set [6], the selection result is on record as “selected”.
